According to patent publication US20090291939A1, “Treating Alcohol And Or Substance Abuse By Antagonizing Alpha 2 Adrenergic Receptors With Weak Dopamine Blocking” (priority 2002, published 2009):
Entries after “also recorded” stand apart in the source; their conditions may differ. For at least one compound, name, drawing or mass did not settle the structure.

System: Syrian golden hamsters
Experiment: Free choice alcohol drinking in Syrian golden hamsters with daily s.c. drug treatment
Settings: for alcohol consumption during post-hoc period: post-hoc: CLOZ animals 2 days lower dose then 22 days vehicle, HAL animals 0.6, 0.8, then 1 mg/kg over 15 days

CN1CCN(C2=Nc3cc(Cl)ccc3Nc3ccccc32)CC1 [CLOZ, clozapine]
alcohol drinking, change during treatment period (9-day treatment: CLOZ 2 then 4 mg/kg, HAL 0.2 then 0.4 mg/kg, s.c. daily): selectively and reversibly decreases alcohol consumption | alcohol consumption during post-hoc period: gradually returned toward baseline levels; also recorded: essentially returned to levels comparable to those during the baseline period; also recorded: not significantly different from the baseline level of drinking | alcohol consumption during post-hoc period (listed as clozapine): gradually returned toward baseline
